Laboratory results reported in publication PMC7571625.
Results are given in words; binding and its absence hold for the method and conditions named. In cells and extracts the contact can be indirect. Here binding means that the protein was enriched with, or labelled near, the bait; the list need not be complete. For some of these results: No binding means not detected with the bait. Sequences can lack the tags named with a protein.

By UniProt entry, the sequences of proteins in these tests, tags left out.
UniProt Q8TDG2: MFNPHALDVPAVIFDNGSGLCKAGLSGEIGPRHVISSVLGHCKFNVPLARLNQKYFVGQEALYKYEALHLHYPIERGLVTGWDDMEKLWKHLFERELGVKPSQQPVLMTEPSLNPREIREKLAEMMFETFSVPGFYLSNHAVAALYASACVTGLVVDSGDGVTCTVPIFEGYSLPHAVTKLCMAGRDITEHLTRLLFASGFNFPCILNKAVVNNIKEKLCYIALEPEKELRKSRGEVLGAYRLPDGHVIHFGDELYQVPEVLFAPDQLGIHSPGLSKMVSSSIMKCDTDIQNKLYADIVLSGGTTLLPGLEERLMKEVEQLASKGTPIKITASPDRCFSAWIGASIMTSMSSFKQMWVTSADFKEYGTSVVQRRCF

T1: GFP-ANXA6 (annexin A6) (UniProt P08133)
T1 sequence: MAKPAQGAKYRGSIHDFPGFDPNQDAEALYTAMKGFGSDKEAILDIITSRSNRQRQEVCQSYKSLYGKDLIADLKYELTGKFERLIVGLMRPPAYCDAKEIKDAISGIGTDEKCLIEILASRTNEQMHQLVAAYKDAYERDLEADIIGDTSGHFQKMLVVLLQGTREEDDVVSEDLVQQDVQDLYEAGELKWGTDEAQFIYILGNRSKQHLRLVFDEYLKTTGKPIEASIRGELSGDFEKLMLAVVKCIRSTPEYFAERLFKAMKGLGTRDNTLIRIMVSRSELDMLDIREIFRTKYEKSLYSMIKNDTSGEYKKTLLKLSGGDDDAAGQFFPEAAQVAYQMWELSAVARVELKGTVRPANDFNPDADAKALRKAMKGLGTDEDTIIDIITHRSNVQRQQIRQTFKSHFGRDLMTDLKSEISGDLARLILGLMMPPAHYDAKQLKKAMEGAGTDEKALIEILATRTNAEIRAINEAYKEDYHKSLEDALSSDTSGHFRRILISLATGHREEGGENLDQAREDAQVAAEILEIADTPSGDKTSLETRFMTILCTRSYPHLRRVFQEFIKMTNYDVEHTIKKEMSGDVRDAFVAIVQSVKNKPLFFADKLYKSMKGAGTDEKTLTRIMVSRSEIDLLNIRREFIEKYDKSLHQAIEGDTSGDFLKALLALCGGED

B1: ATG9A, endogenous in HEK293 (protein, UniProt Q7Z3C6 1-839)
chain: MAQFDTEYQRLEASYSDSPPGEEDLLVHVAEGSKSPWHHIENLDLFFSRVYNLHQKNGFTCMLIGEIFELMQFLFVVAFTTFLVSCVDYDILFANKMVNHSLHPTEPVKVTLPDAFLPAQVCSARIQENGSLITILVIAGVFWIHRLIKFIYNICCYWEIHSFYLHALRIPMSALPYCTWQEVQARIVQTQKEHQICIHKRELTELDIYHRILRFQNYMVALVNKSLLPLRFRLPGLGEAVFFTRGLKYNFELILFWGPGSLFLNEWSLKAEYKRGGQRLELAQRLSNRILWIGIANFLLCPLILIWQILYAFFSYAEVLKREPGALGARCWSLYGRCYLRHFNELEHELQSRLNRGYKPASKYMNCFLSPLLTLLAKNGAFFAGSILAVLIALTIYDEDVLAVEHVLTTVTLLGVTVTVCRSFIPDQHMVFCPEQLLRVILAHIHYMPDHWQGNAHRSQTRDEFAQLFQYKAVFILEELLSPIVTPLILIFCLRPRALEIIDFFRNFTVEVVGVGDTCSFAQMDVRQHGHPQWLSAGQTEASVYQQAEDGKTELSLMHFAITNPGWQPPRESTAFLGFLKEQVQRDGAAASLAQGGLLPENALFTSIQSLQSESEPLSLIANVVAGSSCRGPPLPRDLQGSRHRAEVASALRSFSPLQPGQAPTGRAHSTMTGSGVDARTASSGSSVWEGQLQSLVLSEYASTEMSLHALYMHQLHKQQAQAEPERHVWHRRESDESGESAPDEGGEGARAPQSIPRSASYPCAAPRPGAPETTALHGGFQRRYGGITDPGTVPRVPSHFSRLPLGGWAEDGQSASRHPEPVPEEGSEDELPPQVHKV

Target: T1, GFP-ANXA6 (annexin A6)
Experiment: affinity purification with mass spectrometry; HEK293 overexpressing GFP-ANXA6, control or starved in EBSS for 2 h; lysed in IP buffer; pull-down with GFP-Trap Agarose; SDS-PAGE, trypsin digestion, LC-MS/MS, label-free quantitation

binding | Molecule
no binding | B1

Target: T1, GFP-ANXA6 (annexin A6)
Experiment: as above
Remark: another data set of the same source

binding | Molecule
binds | ACTRT1 (actin-related protein T1) (from UniProt Q8TDG2 1-376)
binds | RAB2 (human (endogenous in HEK293))
binds | RAB5 (human (endogenous in HEK293))
binds | RAB7 (human (endogenous in HEK293))
binds | RAB8 (human (endogenous in HEK293))
binds | RAB11 (human (endogenous in HEK293))
